# Experimental data: the supplement of paper PMC3334620
# Whole data set: some 33,000 sequences, median “E-score (-0.5 to 0.5)” near -0.0059, cut for the highest 2% near 0.26. The list shows a part of the results.
# Biological target: T1, Cin5 (UniProt P40917)
# T1 sequence: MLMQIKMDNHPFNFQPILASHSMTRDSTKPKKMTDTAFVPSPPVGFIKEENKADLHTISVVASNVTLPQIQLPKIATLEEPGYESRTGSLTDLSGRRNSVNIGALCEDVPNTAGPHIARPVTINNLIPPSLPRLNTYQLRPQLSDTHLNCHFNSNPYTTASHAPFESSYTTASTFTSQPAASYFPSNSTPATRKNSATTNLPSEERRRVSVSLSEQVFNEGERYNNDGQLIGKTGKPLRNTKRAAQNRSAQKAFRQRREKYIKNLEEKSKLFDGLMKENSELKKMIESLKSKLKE
# Experiment: PBM E-score (8-mer binding enrichment) (E-score (-0.5 to 0.5)); higher = stronger / more preferred TF binding
# Settings: protein concentration: 100 nM; construct: GST-full length
# Method: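 Universal 'all 10-mer' protein binding microarrays (Agilent AMADID 015681) probed with GST-tagged S. cerevisiae TFs (full-length or DBD) made by in vitro transcription/translation (PURExpress), about 100-200 nM. Bound TF was detected with fluorescent anti-GST. Each ungapped 8-mer (which stands for itself and its reverse complement) is scored by the PBM enrichment score (E-score), a modified Wilcoxon-Mann-Whitney statistic from -0.5 to +0.5, computed with the Universal PBM Analysis Suite. Scale: above 0.35 generally sequence-specific binding.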
row,Sequence,PBM E-score
1,AAGAGCGT,0.103
2,GCTACGCA,-0.129
3,ATTCACAC,0.111
4,GCGATGCC,-0.329
5,GTGAGCAA,-0.0402
6,GAGTCAGC,-0.0523
7,CCTAGGAC,-0.103
8,CCCCTCAC,0.107
9,ACAAATCG,0.0796
10,AAGATAGG,0.0177
11,AGCATATG,0.0101
12,ATTGGGGC,0.0971
13,AAGGCCCG,-0.334
14,CTTATCGA,0.168
15,TAAACCCA,0.08
16,ACACTATA,0.161
17,CATGAGGC,-0.152
18,GTCTATAA,0.152
19,AGCTCCAT,-0.0241
20,GGTATATA,0.203
21,ATCAACAG,0.146
22,AGATAGAA,0.00031

row,Sequence,PBM E-score
1,ACAGGGAC,-0.214
2,CTCCGTGC,-0.168
3,CACCCGCA,-0.114
4,AACAACAT,0.0919
5,GCGCTTAC,0.214
6,AGTGTAGG,-0.051
7,GGGCTACA,-0.212
8,TGCGGACA,0.111
9,ACTCAAGT,-0.0957
10,AGATTTTG,0.0675
11,CACAGAGC,-0.112
12,GACATAAC,0.276
13,CACGTGCA,-0.0305
14,CTTAGCAA,0.123
15,GAAATTCA,0.167
16,ACTGATTC,0.113
17,AACCTATG,-0.0934
18,AGCTTAAA,-0.00083
19,CGGTAAGC,0.114
20,CCGCAAGC,-0.163
21,GTCGCGAC,0.317
22,GGACCTCA,-0.0665

row,Sequence,PBM E-score
1,GCTTCAAA,-0.0744
2,ATGAGGGC,-0.0834
3,AGAACATC,0.038
4,AATGTGCG,0.109
5,ACAAAGGC,-0.102
6,AACGTGCC,-0.0876
7,AGCTTCTG,-0.0657
8,GGCACTGA,-0.0895
9,CTAACTTC,-0.0499
10,CAGGGCCC,-0.133
11,CGTATTTA,0.308
12,AGGCTACA,-0.0541
13,ACTCTCAA,-0.0661
14,AAGGTTAG,-0.0019
15,CGATCAGC,0.0064
16,GGCCAGTA,-0.00787
17,AGATCCCG,0.159
18,CACCTCTA,0.0362
19,CTGTTAAC,0.194
20,CCTTACCA,-0.0985
21,CCAGCACC,-0.158
22,ACTTAAAG,-0.201

row,Sequence,PBM E-score
1,ACCACCCC,-0.235
2,AATGTTAT,0.153
3,TAAACAAA,0.14
4,CGGCTTGA,0.0318
5,CAACGCCC,-0.0754
6,CTACAATC,0.201
7,CAATACAG,0.0431
8,ATCGCGTG,0.133
9,CCGACAGG,-0.05
10,CGGATATA,0.246
11,CTTTGGAA,-0.0653
12,CGCTGCTC,-0.154
13,CCTTAATC,-0.104
14,AAATTCGC,0.192
15,CTGATGTC,0.184
16,ACTGAACC,-0.176
17,AACGGCGA,0.203
18,GGGCATCA,-0.233
19,GACTGATA,0.00101
20,CGGTACAC,-0.271
21,AACAAGAC,0.157
22,ACTAACGC,-0.0122

row,Sequence,PBM E-score
1,AGCTCCGC,-0.142
2,AGGGGGGA,-0.343
3,AATGGTGC,-0.0336
4,ATTCTTCA,0.076
5,CACTGGGA,-0.0729
6,TAGTTCCA,0.0959
7,AATATCTG,0.0359
8,GCACTACA,-0.17
9,ATCGATTA,0.248
10,CCAATGCC,-0.124
11,ACGTATCT,-0.198
12,ATTTAACG,0.135
13,AATGTTGG,0.114
14,GAAACCGC,0.185
15,AAGGGCCT,-0.365
16,CGTAGCCC,-0.0985
17,GAGCGTCC,-0.136
18,AATGGACG,0.169
19,AGAGTCGC,-0.0772
20,ACTCCTAG,-0.151
21,ATGACACC,0.0137
22,TCGGAACA,0.29

# Rewritten bar-delimited: entries from further up
row | Sequence | PBM E-score
16 | ACTGAACC | -0.176
17 | AACGGCGA | 0.203
18 | GGGCATCA | -0.233
19 | GACTGATA | 0.00101
20 | CGGTACAC | -0.271
21 | AACAAGAC | 0.157
22 | ACTAACGC | -0.0122
1 | AGCTCCGC | -0.142
2 | AGGGGGGA | -0.343
3 | AATGGTGC | -0.0336
4 | ATTCTTCA | 0.076
5 | CACTGGGA | -0.0729
7 | AATATCTG | 0.0359
9 | ATCGATTA | 0.248
10 | CCAATGCC | -0.124
11 | ACGTATCT | -0.198
12 | ATTTAACG | 0.135
13 | AATGTTGG | 0.114
14 | GAAACCGC | 0.185
15 | AAGGGCCT | -0.365
16 | CGTAGCCC | -0.0985
17 | GAGCGTCC | -0.136
18 | AATGGACG | 0.169
20 | ACTCCTAG | -0.151
21 | ATGACACC | 0.0137
22 | TCGGAACA | 0.29
